This is an account of results in article PMC5996148.

Where “and” joins values, the source holds several entries; their conditions need not be identical. Equal values may be shown once. The list shows a part of the results. For some assays here: The source does not settle which construct or isoform was used.

What all share (assay): protein microarray (ProtoArray v5.0), streptavidin-Alexa Fluor 647
Common to all, as to conditions: 3'-biotin; 20 mM Tris (pH 7.5), 5 mM MgCl2, 100 mM KCl, 0.1% Tween-20, A/T-rich and random oligonucleotide blockers; temperature not stated; high values mean tight binding

In test [1] the test system is GNAQ (human).
Test [2] has as its system GNB5 (human).
The subject of test [3] is GNE (human).
Test [4] relates to GNG13 (human).
For test [5], the system named is GNG4 (human).
For test [6], the system named is GNGT1 (human).
The subject of test [7] is GNMT (human).
Test [8] relates to GNPAT (human).
The test system of test [9] is GNPTAB (human).
Test [10] deals with GOLPH2 (human).
Test [11] has as its system GOSR1 (human).
In test [12] the test system is GP1BA (human).
Test [13] relates to GP9 (human).
For test [14], the system named is GPC4 (human).
The subject of test [15] is GPC5 (human).
Test [16] deals with GPD1 (human).
The subject of test [17] is GPI transamidase component PIG-S (human).
Test [18] deals with GPLD1 (human).
Test [19] concerns GPM6A (human).
Test [20] deals with T1, GPM6B (UniProt Q13491).
T1 sequence: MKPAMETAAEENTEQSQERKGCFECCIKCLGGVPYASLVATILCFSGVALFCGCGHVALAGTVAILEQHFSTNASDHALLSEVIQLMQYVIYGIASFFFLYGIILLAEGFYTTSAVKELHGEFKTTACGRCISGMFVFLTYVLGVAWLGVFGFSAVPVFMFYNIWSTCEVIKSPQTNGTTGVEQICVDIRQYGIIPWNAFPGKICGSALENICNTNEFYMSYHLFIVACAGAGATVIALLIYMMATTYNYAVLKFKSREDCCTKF

Take “GGGAGGCTGAGGCAGG [G4-1 biotinylated (PQS2)]”: the binding signal is -0.32 z-score in test [1]; -0.325 z-score in [2]; -0.299 z-score in test [3]; -0.368 z-score in test [4]; -0.341 z-score in [5]; -0.342 z-score in test [6]. For the same sequence, the binding signal in [7] is -0.34 z-score; in [8], -0.306 z-score; in [9] it was -0.337 z-score; in test [10] it was -0.346 z-score; in test [11] it was -0.321 z-score and -0.303 z-score; in [12], -0.298 z-score. The binding signal in test [13] was -0.332 z-score; in test [14] it was -0.314 z-score; in [15] it was -0.343 z-score; in test [16] it was -0.361 z-score; in test [17], -0.31 z-score; in test [18] it was -0.338 z-score. The binding signal was -0.322 z-score in [19] and -0.306 z-score in test [20].
